These are yes or no findings as the source states them, for the method shown. Binding seen in cells or lysates may run through a third protein. Some binding calls cover weakened binding; strength is not graded here.
Target: T1, Mov10 (endogenous, P2 mouse brain) (mouse (endogenous in P2 brain)) (UniProt P23249)
T1 sequence: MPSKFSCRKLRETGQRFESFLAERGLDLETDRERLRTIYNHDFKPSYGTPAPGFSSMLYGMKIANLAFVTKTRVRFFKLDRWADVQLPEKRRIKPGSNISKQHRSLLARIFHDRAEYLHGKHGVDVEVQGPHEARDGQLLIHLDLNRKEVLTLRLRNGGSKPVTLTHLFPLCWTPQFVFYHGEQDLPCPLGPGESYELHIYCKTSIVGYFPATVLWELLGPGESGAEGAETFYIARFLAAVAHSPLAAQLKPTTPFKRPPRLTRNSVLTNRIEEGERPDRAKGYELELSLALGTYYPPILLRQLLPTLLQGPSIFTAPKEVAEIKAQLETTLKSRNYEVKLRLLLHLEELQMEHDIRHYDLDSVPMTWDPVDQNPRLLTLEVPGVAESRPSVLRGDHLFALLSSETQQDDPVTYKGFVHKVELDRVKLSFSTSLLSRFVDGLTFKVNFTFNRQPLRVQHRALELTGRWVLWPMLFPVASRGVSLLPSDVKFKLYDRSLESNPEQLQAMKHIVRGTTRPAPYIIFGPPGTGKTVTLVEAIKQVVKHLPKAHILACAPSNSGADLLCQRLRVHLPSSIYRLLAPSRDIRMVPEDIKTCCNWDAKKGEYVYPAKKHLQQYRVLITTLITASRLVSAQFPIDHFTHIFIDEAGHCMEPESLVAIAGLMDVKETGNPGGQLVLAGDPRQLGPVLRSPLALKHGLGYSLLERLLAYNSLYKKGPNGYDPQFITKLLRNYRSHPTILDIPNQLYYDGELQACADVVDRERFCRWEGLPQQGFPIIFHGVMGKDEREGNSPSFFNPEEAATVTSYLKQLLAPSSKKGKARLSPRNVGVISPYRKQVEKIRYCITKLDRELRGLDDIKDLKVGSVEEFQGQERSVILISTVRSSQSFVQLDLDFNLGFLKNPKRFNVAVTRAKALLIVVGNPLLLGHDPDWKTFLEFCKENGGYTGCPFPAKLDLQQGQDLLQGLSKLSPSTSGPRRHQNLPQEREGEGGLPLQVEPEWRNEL
Experiment: co-IP; Mov10 or irrelevant antibody IP from P2 mouse brains, immunoblotted for L1-ORF2; with and without RNAse treatment

Amino acid sequences for entries named in this document (tags omitted).
UniProt P11369: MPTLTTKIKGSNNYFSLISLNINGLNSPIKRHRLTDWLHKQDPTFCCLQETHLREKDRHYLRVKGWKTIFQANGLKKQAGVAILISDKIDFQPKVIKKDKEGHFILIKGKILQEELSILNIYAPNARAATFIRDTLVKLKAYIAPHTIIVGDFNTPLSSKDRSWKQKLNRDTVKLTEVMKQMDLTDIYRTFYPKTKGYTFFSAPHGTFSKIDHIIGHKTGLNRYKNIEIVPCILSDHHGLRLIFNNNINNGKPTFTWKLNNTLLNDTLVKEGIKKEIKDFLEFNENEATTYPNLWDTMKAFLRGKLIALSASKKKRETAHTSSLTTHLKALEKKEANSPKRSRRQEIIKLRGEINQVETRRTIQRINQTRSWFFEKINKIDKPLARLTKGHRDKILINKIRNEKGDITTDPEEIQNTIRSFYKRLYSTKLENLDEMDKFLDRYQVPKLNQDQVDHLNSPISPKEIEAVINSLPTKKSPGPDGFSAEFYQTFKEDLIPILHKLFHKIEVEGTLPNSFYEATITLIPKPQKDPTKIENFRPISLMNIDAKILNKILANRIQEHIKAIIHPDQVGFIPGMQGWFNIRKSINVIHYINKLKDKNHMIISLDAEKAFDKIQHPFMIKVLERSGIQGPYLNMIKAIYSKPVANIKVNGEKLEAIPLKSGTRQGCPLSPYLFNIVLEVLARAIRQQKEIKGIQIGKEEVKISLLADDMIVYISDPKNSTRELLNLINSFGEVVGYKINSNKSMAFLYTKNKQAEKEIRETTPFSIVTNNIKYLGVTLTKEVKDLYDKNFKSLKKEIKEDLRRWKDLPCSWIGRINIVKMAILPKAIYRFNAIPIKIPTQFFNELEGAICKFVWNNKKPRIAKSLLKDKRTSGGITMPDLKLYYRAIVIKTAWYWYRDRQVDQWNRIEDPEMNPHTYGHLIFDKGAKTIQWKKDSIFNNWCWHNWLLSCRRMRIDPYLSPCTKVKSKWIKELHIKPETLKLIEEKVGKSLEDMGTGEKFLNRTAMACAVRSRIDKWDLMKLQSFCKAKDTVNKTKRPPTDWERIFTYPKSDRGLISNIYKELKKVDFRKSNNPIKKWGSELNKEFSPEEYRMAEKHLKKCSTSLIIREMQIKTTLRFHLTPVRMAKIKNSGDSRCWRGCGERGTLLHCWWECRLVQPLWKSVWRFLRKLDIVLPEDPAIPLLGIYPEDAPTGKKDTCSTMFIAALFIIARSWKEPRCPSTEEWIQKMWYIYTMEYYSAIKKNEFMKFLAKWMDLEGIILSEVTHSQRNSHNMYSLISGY

Q: How did the binding turn out when “L1 ORF2p, the RT/endonuclease encoded by L1 (from UniProt P11369 1-1281) (enzyme)” was run?
A: binds

— PMC5492891
